Measured values published in paper PMC10052652 (Molecules, 2023).

What was measured:
Format in all cases: cell-based
[1] = tested on: HCT116 cells; test: Cytotoxic activity, MTT assay, HCT116; conditions: Homo sapiens, HCT-116, 72 h, read-out: IC50 HCT116, MTT, 72 h
Experimental: (§1) The cancer cell lines used in this study were HCT116 (colorectal carcinoma), IGROV1 (ovarian cancer), OVCAR3 (ovarian cancer), and MCF7 (mammary gland/breast cancer). […] Cell lines were maintained in culture and were incubated at 37 °C in an incubator with 5% CO2 in a humidified atmosphere. All tests were established at 80% of confluence, and viability was estimated with a trypan blue exclusion assay.
(§2) The cytotoxic activities of molecules against cancer cell lines were evaluated using an MTT assay. The MTT colorimetric assay was performed using 96-well plates. Cells were seeded in a 96-well plate, at a concentration of 10 × 10^3 cells/well for HCT116 and 12 × 10^3 cells/well for MCF7, IGROV1, and OVAR. Adherent cells were dispatched and incubated at 37 °C overnight in a 5% CO2-enriched atmosphere. […] After that, the medium was removed, and cells were treated with 50 µL of 3-(4,5-dimethylthazolk-2-yl)-2,5-diphenyl tetrazolium bromide (MTT) solution (3 mg/mL in PBS) at 37 °C for 20 to 40 min. To dissolve the […], we added 80 µL of 100% DMSO. Optical density was measured at 540 nm. All tests were established in triplicate. […]

[2] = tested on: MCF7 cells; test: Cytotoxic activity, MTT assay, MCF7; conditions: Homo sapiens, MCF7, 72 h
Experimental: Optical density was measured at 540 nm. All tests were established in triplicate.

[3] = tested on: OVCAR-3 cells; test: Cytotoxic activity, MTT assay, OVCAR-3; conditions: Homo sapiens, OVCAR-3, 72 h, read-out: IC50 OVCAR-3
Experimental: as §1, §2

[4] = tested on: SKOV-3 cells; test: Cytotoxic activity, MTT assay, SKOV-3; conditions: Homo sapiens, SK-OV-3, 72 h

Structure (SMILES): CC/C(=C(\c1ccccc1)c1ccc(OCCN(C)C)cc1)c1ccccc1 [Tamoxifen, reference compound]
- IC50 [1]: 1 ± 0.2 µM
- IC50 [2]: 1 ± 0.1 µM
- IC50 [3]: 1.4 ± 0.3 µM
- IC50 [4]: 1.3 ± 0.1 µM
